Data reported in PubChem BioAssay AID504847 (National Center for Advancing Translational Sciences (NCATS), 2011).
Hit rate of the full screen: of about 400,000 compounds, about 3,700 (0.93%) were called active. Inconclusive results, whose numbers are uncertain, are shown with a selection of clear calls. The call rests on the fitted dose curve; in most records, active means well fitted inhibition curve with a large enough effect; inconclusive means small, poorly fitted or top-dose-only effect, or another doubt; inactive means no such curve, though single readings can be large or run the other way. Where the call is inconclusive, the potency comes from a doubtful curve fit.

Protein sequences, listed by entry. Tags and fused reporters are not part of them. Lines headed by an entry give the natural chain unless they say otherwise; changes in a name come on top.
UniProt P11473: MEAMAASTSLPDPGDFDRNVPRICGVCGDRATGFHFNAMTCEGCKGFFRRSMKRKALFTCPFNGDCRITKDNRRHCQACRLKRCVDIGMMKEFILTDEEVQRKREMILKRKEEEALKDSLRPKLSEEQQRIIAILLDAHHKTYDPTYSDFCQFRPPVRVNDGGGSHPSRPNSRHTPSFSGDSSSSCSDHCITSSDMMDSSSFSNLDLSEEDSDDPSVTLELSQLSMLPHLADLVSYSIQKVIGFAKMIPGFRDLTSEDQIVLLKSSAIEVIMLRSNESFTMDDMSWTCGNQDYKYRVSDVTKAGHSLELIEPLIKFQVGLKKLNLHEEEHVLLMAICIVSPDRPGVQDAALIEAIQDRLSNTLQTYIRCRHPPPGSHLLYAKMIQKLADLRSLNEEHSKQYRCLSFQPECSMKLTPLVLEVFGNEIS

Biological target: Vitamin D3 receptor (Homo sapiens) (UniProt P11473)
Test: Inhibitors of the vitamin D receptor (VDR): qHTS
Conditions: VDR-SRC2-3 peptide fluorescence polarization, 2 h; max response, negative = inhibition: active compounds read low
In short: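 Fluorescence polarization assay of small-molecule disruption of VDR binding to coregulator peptide SRC2-3. Compounds and controls pin-transferred, then read after 2 h incubation at ambient room temperature.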
On the % scale 0 is the no-effect control and ±100 the full control effect; potency means the concentration at half of the fitted maximal effect.

Structure (SMILES) | Potency | max response, negative = inhibition
CN(c1ccccc1)c1ccc(/C=C(\C#N)c2nnc3n2CCCCC3)cc1[N+](=O)[O-] | inconclusive: 63.1 µM [inhibitor, partial curve, poor fit] | –
COc1ccc(OC)c(NC(=O)Cc2coc3cc(C)cc(C)c23)c1 | – | inactive: -10.7%
C[C@@H]1[C@H](c2ccccc2)Oc2ccc(Cl)cc2S(=O)(=O)N1CC1CCCN1C(=O)OC(C)(C)C (stereo partly drawn) | inconclusive: 100 µM [inhibitor, partial curve, poor fit] | –
O=C(O)CSc1c2c(nc3cc(C(=O)Nc4ccc(F)c(Cl)c4)ccc13)CCCC2 | inconclusive: 79.4 µM [inhibitor, partial curve] | –
C/C(CS(=O)(=O)c1ccc(Cl)c(Cl)c1)=N/NC(N)=S | inconclusive: 89.1 µM [inhibitor, single point] | –
O=C(CCl)N1c2ccccc2SCC1c1ccccc1 (stereo not drawn) | inconclusive: 17.8 µM [inhibitor, full curve, poor fit] | –
O=C(O)c1ccc(N2C(=O)/C(=C/c3ccc(-c4ccc([N+](=O)[O-])cc4)o3)C=C2c2ccccc2)cc1 | inconclusive: 89.1 µM [inhibitor, single point] | –
Cc1ccc(C(=O)N/C(=C\c2ccc3c(c2)OCO3)C(=O)N2CCOCC2)cc1 | inconclusive: 100 µM [inhibitor, single point] | –
O=C(NC1CCCCC1)Oc1cc2oc(=O)sc2cc1Br | active: 44.7 µM | –
Cc1ccc(-c2nnc(-c3cccc(Br)c3)o2)cc1 | inconclusive: 35.5 µM [inhibitor, full curve, poor fit] | –
Oc1c(C(c2ccccc2Cl)N2CCCC2)ccc2cccnc12 (stereo not drawn) | inconclusive: 79.4 µM [inhibitor, partial curve, poor fit] | –
Cc1ccc(C(=O)N2CCN(c3ccc([N+](=O)[O-])cc3-n3cccc3)CC2)cc1 | inconclusive: 50.1 µM [inhibitor, partial curve, poor fit] | –
c1ccc2c(C3=NNC(=NC4CC4)SC3)c[nH]c2c1 | inconclusive: 100 µM [inhibitor, partial curve, poor fit] | –
O=C(c1ccncc1)N1CCC[C@@]2(CCN(C(c3ccccc3)c3ccccc3)C2)C1 | inconclusive: 56.2 µM [inhibitor, single point] | –
CCN(CC)C(=O)Cn1cc(C(=O)C(=O)NCCc2ccccc2)c2ccccc21 | inconclusive: 39.8 µM [inhibitor, single point] | –
CC(=O)OC1CC2C(C)(C)C(O)C=C[C@@]2(C)C2CC[C@@]3(C)C(c4ccoc4)OC(=O)C4OC43[C@]12C (stereo partly drawn) | inconclusive: 79.4 µM [inhibitor, partial curve, poor fit] | –
COc1ccc(-c2cc(C(F)F)n3ncc(C(=O)N4CCc5ccccc54)c3n2)cc1 | inconclusive: 22.4 µM [inhibitor, single point] | –
Cc1cc(C)nc(NC(=O)COc2cc(Cl)cc(Cl)c2)n1 | inconclusive: 7.94 µM [inhibitor, partial curve, poor fit] | –
COc1ccc(N(C(=O)CCl)C(C(=O)NCCc2ccccc2)c2cccs2)cc1 (stereo not drawn) | inconclusive: 70.8 µM [inhibitor, partial curve, poor fit] | –
Cc1ccc(C(=O)Nc2nc(-c3ccco3)c(-c3ccco3)s2)o1 | inconclusive: 79.4 µM [inhibitor, single point] | –
COc1ccc(CC(=O)Nc2nc(C)cs2)cc1S(=O)(=O)N1CCOCC1 | – | inactive: 6.46%

Structure (SMILES) | Potency | max response, negative = inhibition
O=C(Nc1cc(S(=O)(=O)N2CCOCC2)ccc1N1CCCC1)c1ccc(F)cc1 | active: 39.8 µM | –
c1ccc(Oc2c3ccccc3nc3ccccc23)cc1 | active: 44.7 µM | –
NC(=O)CN1C(=O)/C(=c2\sc3nc(=O)c(Cc4ccccc4)nn3c2=O)c2ccccc21 | inconclusive: 22.4 µM [inhibitor, full curve] | –
CSc1nc(C)cc(OCCO)n1 | inconclusive: 8.91 µM [inhibitor, partial curve] | –
O=C(c1ccco1)N(Cc1ccccc1)Cc1ccccn1 | inconclusive: 100 µM [inhibitor, single point] | –
CC(C(=O)Nc1ccc(O)cc1C(=O)O)N1C(=O)/C(=C\c2cccs2)SC1=S (stereo not drawn) | active: 44.7 µM | –
Cc1ccc2[nH]c(C(=O)NN=C3CCCCC3)c(-c3ccccc3)c2c1 | inconclusive: 89.1 µM [inhibitor, single point] | –
O=C(O)Cn1c(=S)sc2ccccc21 | – | inactive: -18.6%
S=C(NCc1ccc(Cl)c(Cl)c1)Nc1ccc2c(c1)OCO2 | inconclusive: 79.4 µM [inhibitor, single point] | –
Fc1cccc(Cl)c1C1Nc2cccc3cccc(c23)N1 | inconclusive: 56.2 µM [inhibitor, partial curve, poor fit] | –
COc1ccc(/C=N/N2C(C)CCCC2C)cc1OC (stereo not drawn) | – | inactive: -0.177%
CC1CCN(CCCOc2ccc(Br)cc2Cl)CC1 | – | inactive: -5.79%
Cc1cccn2c(=S)[nH]nc12 | inconclusive: 70.8 µM [inhibitor, partial curve, poor fit] | –
CCCc1ccccc1OCCNC(C)=O | inconclusive: 20 µM [inhibitor, partial curve, poor fit] | –
COc1ccccc1CNC(=O)CCc1c(C)nn(-c2ccc(N3CCCC3)nn2)c1C | – | inactive: 9.76%
Cc1c(/C=N/NC(N)=O)c2ccccn2c1C(=O)c1ccncc1 | – | inactive: -11.7%
COc1ccc(CN(C)C2CCCCC2)cc1 | inconclusive: 50.1 µM [inhibitor, partial curve, poor fit] | –
O=C(CNS(=O)(=O)c1ccccc1)Nc1cccc([N+](=O)[O-])c1 | inconclusive: 63.1 µM [inhibitor, partial curve, poor fit] | –
COc1ccc2nc(SCC(=O)NC3CCCCC3)[nH]c2c1 | inconclusive: 89.1 µM [inhibitor, single point] | –
COc1ccc2[nH]c3c(c2c1)CCNC3(C)CCc1ccc(Cl)nc1 (stereo not drawn) | inconclusive: 100 µM [inhibitor, single point] | –
CN(C)C(=O)c1ccc(-c2cncnc2NCc2ccccc2)cc1 | inconclusive: 44.7 µM [inhibitor, partial curve] | –

Sorted by heavy-atom count (falling): 3 of the compounds above.
Structure (SMILES) | Potency | max response, negative = inhibition
O=C(CNS(=O)(=O)c1ccccc1)Nc1cccc([N+](=O)[O-])c1 | inconclusive: 63.1 µM [inhibitor, partial curve, poor fit] | –
COc1ccc(/C=N/N2C(C)CCCC2C)cc1OC (stereo not drawn) | – | inactive: -0.177%
COc1ccc(CN(C)C2CCCCC2)cc1 | inconclusive: 50.1 µM [inhibitor, partial curve, poor fit] | –

(listing goes on)

Structure (SMILES) | Potency | max response, negative = inhibition
COc1ccc2nc3ccccc3nc2c1 | inconclusive: 100 µM [inhibitor, single point] | –
CC(=O)OCCOc1nc(NC(C)C)nc(NC(C)C)n1 | inconclusive: 56.2 µM [inhibitor, single point] | –
CCc1cc2c(cc3c(=O)n(CC(=O)N4CCN(C)CC4)ncn32)s1 | inconclusive: 39.8 µM [inhibitor, single point] | –
O=C1c2cccc3cccc(c23)C(=O)C1(O)O | inconclusive: 5.62 µM [inhibitor, full curve, poor fit] | –
O=C(O)c1ccc(C=C(c2nc3ccccc3s2)c2nc3ccccc3s2)cc1 | inconclusive: 44.7 µM [inhibitor, partial curve, poor fit] | –
CCOc1cc(NC(=S)Nc2ccc(Cl)cc2)c(OCC)cc1NC(C)=O | inconclusive: 79.4 µM [inhibitor, single point] | –
Cc1cccc(-n2nnnc2-c2cnccc2C(F)(F)F)c1C | inconclusive: 89.1 µM [inhibitor, single point] | –
O=C(CCN1C(=O)/C(=C\C=C\c2ccccc2)SC1=S)Nc1ccc(C(=O)O)cc1 | inconclusive: 3.98 µM [inhibitor, partial curve, poor fit] | –
CCc1nnc(NS(=O)(=O)c2ccc(NC(=S)NC(=O)c3ccc(F)cc3)cc2)s1 | inconclusive: 89.1 µM [inhibitor, single point] | –
[N-]=[N+]=Nc1ccc(C(=O)CSC[C@H](NC(=O)CC[C@H](N)C(=O)O)C(=O)NCC(=O)O)cc1 | active: 44.7 µM | –
COc1ccc(C(=O)NCC(=O)OCC(=O)Nc2cccc(S(=O)(=O)N3CCCC3)c2)cc1 | inconclusive: 4.47 µM [inhibitor, partial curve, poor fit] | –
S=C(c1ccc(N2CCOCC2)cc1)N1CCOCC1 | inconclusive: 100 µM [inhibitor, single point] | –
O=C(O)c1cc(S(=O)(=O)Nc2ccc3oc(=O)sc3c2)ccc1O | active: 79.4 µM | –
Cc1ccc(Nc2c(-c3ccc(C)cc3)nc3ccc(C)cn23)cc1 | inconclusive: 3.98 µM [inhibitor, partial curve, poor fit] | –
N#C/C(=C/c1ccc(N2CCCCC2)o1)c1cccc(F)c1 | active: 39.8 µM | –
O=C(O)c1ccccc1NS(=O)(=O)c1cccc(-n2sc3ccccc3c2=O)c1 | active: 10 µM | –
O=C(c1csnn1)N1CCC[C@@]2(CCN(C(c3ccccc3)c3ccccc3)C2)C1 | inconclusive: 39.8 µM [inhibitor, partial curve, poor fit] | –
Clc1cccc(Cl)c1CNc1ccc(N2CCCC2)cc1 | inconclusive: 63.1 µM [inhibitor, partial curve, poor fit] | –
CN[C@@H]1[C@H](O[C@@H]2O[C@H](CO)[C@@H](N)[C@H](O)[C@@H]2O)O[C@H]2C[C@@H](N)[C@@H](O[C@H]3[C@@H](O)[C@H](O)[C@H](N)C[C@@H]3N)O[C@H]2[C@H]1O | – | inactive: -16.7%
COc1ccc2[nH]c(=O)c(CN(C(=O)c3cccnc3)c3cccc(C)c3)cc2c1 | inconclusive: 28.2 µM [inhibitor, single point] | –
COc1cc(N(C)C)cc(CN(C)CCc2ccc([N+](=O)[O-])cc2)c1O | active: 2.51 µM | –
